Measured values from US9783592B2 (priority 2010, dated 2017).
At least one compound was matched to its structure with a doubt left.

Chains of the proteins cited; added tags and fusions are not shown. Residues count along the entry.
UniProt P43220, 24-463, species assumed: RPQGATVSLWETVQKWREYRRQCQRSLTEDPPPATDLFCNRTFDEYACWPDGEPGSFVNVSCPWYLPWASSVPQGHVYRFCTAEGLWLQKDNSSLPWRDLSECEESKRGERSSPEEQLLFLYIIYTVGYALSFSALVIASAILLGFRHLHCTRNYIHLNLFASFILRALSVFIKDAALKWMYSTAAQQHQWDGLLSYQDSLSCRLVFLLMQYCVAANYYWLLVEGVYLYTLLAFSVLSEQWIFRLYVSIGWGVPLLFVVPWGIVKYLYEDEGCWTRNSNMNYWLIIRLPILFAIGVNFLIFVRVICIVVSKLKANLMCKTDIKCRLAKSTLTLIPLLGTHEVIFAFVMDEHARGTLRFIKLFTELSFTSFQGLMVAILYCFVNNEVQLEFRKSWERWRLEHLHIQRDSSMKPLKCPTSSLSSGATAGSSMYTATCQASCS

Molecular target: T1, GLP-1 receptor (Homo sapiens, UniProt P43220)
T1 construct: expressed in transfected cells; host or cells: HEK293
Experiment: GLP-1 activity (cAMP induction), CRE-luciferase reporter assay in HEK293 cells
Type: cell-based
Details: read-out: GLP-1 EC50; Example 23; HEK293 cells co-transfected with GLP-1 receptor and CRE-luciferase

CCC(C)C(NC(=O)C(C)NC(=O)C(CCC(=O)O)NC(=O)C(CCCCN)NC(=O)C(C)NC(=O)C(C)NC(=O)C(CCC(N)=O)NC(=O)CNC(=O)C(CCC(=O)O)NC(=O)C(CC(C)C)NC(=O)C(Cc1ccc(O)cc1)NC(=O)C(CO)NC(=O)C(CO)NC(=O)C(NC(=O)C(CC(=O)O)NC(=O)C(CO)NC(=O)C(NC(=O)C(Cc1ccccc1)NC(=O)C(NC(=O)CNC(=O)C(CCC(=O)O)NC(=O)C(C)(C)NC(=O)C(C)N)C(C)O)C(C)O)C(C)C)C(=O)NC(C)C(=O)NC(Cc1c[nH]c2ccccc12)C(=O)NC(CC(C)C)C(=O)NC(C(=O)NC(CCCCN)C(=O)NCC(=O)NCC(=O)N1CCCC1C(=O)NC(CO)C(=O)NC(CO)C(=O)NCC(=O)NC(C)C(=O)N1CCCC1C(=O)N1CCCC1C(=O)N1CCCC1C(=O)NC(CO)C(=O)NC(CCCCN)C(N)=O)C(C)C (stereo not drawn) [Inactive GLP-1 (d-amino acid containing)]
EC50: 480 ± 12.8 nM
